Among all 2,300 compounds or so, about 95 (4%) were called active. Not shown: some 17% with an inconclusive outcome. Calls come from the whole dose curve; as a rule, active = well fitted activation curve with a large enough effect; inconclusive = small, poorly fitted or top-dose-only effect; inactive = flat fitted curve, though single readings scatter. The entries are a selection whose mix differs from that of the whole data set.
Molecular target: D(3) dopamine receptor (Homo sapiens) (UniProt P35462)
Experiment: qHTS of D3 Dopamine Receptor Agonist: D3 Dopamine Receptor B-arrestin Agonist Confirmatory Assay;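 note: 100% = dopamine control response; nearly all actives have a fitted effect of over 70% in size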
Settings: DiscoveRx D3 beta-arrestin cells, luminescence, 90 min; at 76.9 µM (top of the series)
Description: D3 DARs represent a very important target for the treatment of several neuropsychiatric disorders. Indeed, one of the most promising therapeutic applications for the D3 DAR is in the area of addiction and related disorders. […] These findings have been observed with a number of addictive substances including cocaine, amphetamine, nicotine, and alcohol. […] Increased D3 DAR activity can thus lead to neuroprotective and neurorestorative actions in the CNS. […] This assay is used to confirm the activity of the identified D3 dopamine receptor agonist. Activation is the desired outcome for this assay. NIH Molecular Libraries Probe Production Centers Network [MLPCN] NIH Chemical Genomics Center [NCGC] MLPCN Grant: NS064831 Assay Submitter (PI): David Sibley
Freshly passaged DiscoveRx D3 cells are plated in 1536 well white, solid bottom plates at a density of 1500 cells/well in 3microl of complete media. After an overnight incubation at 37 degrees C in 5% CO2, cells are loaded with 23nl of test compound from the compound library (as well as dopamine controls) using a 1536 pintool and incubated at 37 degrees C for 90 minutes. Two microliters of DiscoveRx reagent is then added to all cells, and they are incubated for an additional 30 - 60 minutes at room temperature. Following incubation, luminescence is measured on a ViewLux CCD-based luminometer reader using a 20 sec exposure time.

Amino acid sequences for entries named in this document (tags omitted).
UniProt P35462, whole entry, looked up: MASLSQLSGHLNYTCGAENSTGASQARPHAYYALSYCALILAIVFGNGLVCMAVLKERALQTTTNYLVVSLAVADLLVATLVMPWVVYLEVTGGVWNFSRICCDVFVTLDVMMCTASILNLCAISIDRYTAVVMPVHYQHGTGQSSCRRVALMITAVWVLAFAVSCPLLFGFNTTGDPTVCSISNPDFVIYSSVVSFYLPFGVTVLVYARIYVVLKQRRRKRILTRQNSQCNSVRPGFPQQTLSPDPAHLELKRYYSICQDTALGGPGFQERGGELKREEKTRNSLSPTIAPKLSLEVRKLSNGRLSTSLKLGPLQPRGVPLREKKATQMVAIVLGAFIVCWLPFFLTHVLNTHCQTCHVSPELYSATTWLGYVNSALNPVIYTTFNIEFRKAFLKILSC

| Structure (SMILES) | activation |
| --- | --- |
| COC(=O)C1=C(c2ccc(-c3ccccc3)c(F)c2)C[C@@H]2CC[C@H]1N2C(=O)NCc1ccc(F)cc1 | inactive: -3.75% |
| CCOC(=O)C1(Cc2ccc(Cl)cc2)CCN(C(C)CCn2cccn2)CC1 (configuration not stated) | inactive: 22.7% |

Reference: PubChem BioAssay AID720506 (National Center for Advancing Translational Sciences (NCATS), 2013)
